# Source: PMC11605229
# Results are given in words; binding and its absence hold for the method and conditions named. Binding seen in cells or lysates may run through a third protein. A yes stands for co-enrichment or nearness to the bait. Other partners may have been found.
# Target: BioID-BAG3 (UniProt O95817)
# Experiment: proximity labelling; BioID in human AC16 cardiomyocyte cells: transfected with plasmid expressing BioID-BAG3 for 48 h, biotin for 16 h; LC-MS/MS; BAG3_Biotin vs. BioID vector only, adjusted p < 0.05; effect sizes corrected for biotin alone and for BAG3 over-expression; three replicates
row,Binder,binding
1,"MDH2 (protein, UniProt P40926 25-338) AKVAVLGASGGIGQPLSLLLKNSPLVSRLTLYDIAHTPGVAADLSHIETKAAVKGYLGPEQLPDCLKGCDVVVIPAGVPRKPGMTRDDLFNTNATIVATLTAACAQHCPEAMICVIANPVNSTIPITAEVFKKHGVYNPNKIFGVTTLDIVRANTFVAELKGLDPARVNVPVIGGHAGKTIIPLISQCTPKVDFPQDQLTALTGRIQEAGTEVVKAKAGAGSATLSMAYAGARFVFSLVDAMNGKEGVVECSFVKSQETECTYFSTPLLLGKKGIEKNLGIGKVSSFEEKMISDAIPELKASIKKGEDFVKTLK",binds
2,"HPRT1 (protein, UniProt P00492 1-218) MATRSPGVVISDDEPGYDLDLFCIPNHYAEDLERVFIPHGLIMDRTERLARDVMKEMGGHHIVALCVLKGGYKFFADLLDYIKALNRNSDRSIPMTVDFIRLKSYCNDQSTGDIKVIGGDDLSTLTGKNVLIVEDIIDTGKTMQTLLSLVRQYNPKMVKVASLLVKRTPRSVGYKPDFVGFEIPDKFVVGYALDYNEYFRDLNHVCVISETGKAKYKA",binds
3,"RACGAP1 (protein, UniProt Q9H0H5 1-632) MDTMMLNVRNLFEQLVRRVEILSEGNEVQFIQLAKDFEDFRKKWQRTDHELGKYKDLLMKAETERSALDVKLKHARNQVDVEIKRRQRAEADCEKLERQIQLIREMLMCDTSGSIQLSEEQKSALAFLNRGQPSSSNAGNKRLSTIDESGSILSDISFDKTDESLDWDSSLVKTFKLKKREKRRSTSRQFVDGPPGPVKKTRSIGSAVDQGNESIVAKTTVTVPNDGGPIEAVSTIETVPYWTRSRRKTGTLQPWNSDSTLNSRQLEPRTETDSVGTPQSNGGMRLHDFVSKTVIKPESCVPCGKRIKFGKLSLKCRDCRVVSHPECRDRCPLPCIPTLIGTPVKIGEGMLADFVSQTSPMIPSIVVHCVNEIEQRGLTETGLYRISGCDRTVKELKEKFLRVKTVPLLSKVDDIHAICSLLKDFLRNLKEPLLTFRLNRAFMEAAEITDEDNSIAAMYQAVGELPQANRDTLAFLMIHLQRVAQSPHTKMDVANLAKVFGPTIVAHAVPNPDPVTMLQDIKRQPKVVERLLSLPLEYWSQFMMVEQENIDPLHVIENSNAFSTPQTPDIKVSLLGPVTTPEHQLLKTPSSSSLSQRVRSTLTKNTPRFGSKSKSATNLGRQGNFFASPMLK",binds
4,"UROD (protein, UniProt P06132 1-367) MEANGLGPQGFPELKNDTFLRAAWGEETDYTPVWCMRQAGRYLPEFRETRAAQDFFSTCRSPEACCELTLQPLRRFPLDAAIIFSDILVVPQALGMEVTMVPGKGPSFPEPLREEQDLERLRDPEVVASELGYVFQAITLTRQRLAGRVPLIGFAGAPWTLMTYMVEGGGSSTMAQAKRWLYQRPQASHQLLRILTDALVPYLVGQVVAGAQALQLFESHAGHLGPQLFNKFALPYIRDVAKQVKARLREAGLAPVPMIIFAKDGHFALEELAQAGYEVVGLDWTVAPKKARECVGKTVTLQGNLDPCALYASEEEIGQLVKQMLDDFGPHRYIANLGHGLYPDMDPEHVGAFVDAVHKHSRLLRQN",binds
5,"MIF (protein, UniProt P14174 1-115) MPMFIVNTNVPRASVPDGFLSELTQQLAQATGKPPQYIAVHVVPDQLMAFGGSSEPCALCSLHSIGKIGGAQNRSYSKLLCGLLAERLRISPDRVYINYYDMNAANVGWNNSTFA",binds
6,"MAP3K7 (protein, UniProt O43318 1-606) MSTASAASSSSSSSAGEMIEAPSQVLNFEEIDYKEIEVEEVVGRGAFGVVCKAKWRAKDVAIKQIESESERKAFIVELRQLSRVNHPNIVKLYGACLNPVCLVMEYAEGGSLYNVLHGAEPLPYYTAAHAMSWCLQCSQGVAYLHSMQPKALIHRDLKPPNLLLVAGGTVLKICDFGTACDIQTHMTNNKGSAAWMAPEVFEGSNYSEKCDVFSWGIILWEVITRRKPFDEIGGPAFRIMWAVHNGTRPPLIKNLPKPIESLMTRCWSKDPSQRPSMEEIVKIMTHLMRYFPGADEPLQYPCQYSDEGQSNSATSTGSFMDIASTNTSNKSDTNMEQVPATNDTIKRLESKLLKNQAKQQSESGRLSLGASRGSSVESLPPTSEGKRMSADMSEIEARIAATTAYSKPKRGHRKTASFGNILDVPEIVISGNGQPRRRSIQDLTVTGTEPGQVSSRSSSPSVRMITTSGPTSEKPTRSHPWTPDDSTDTNGSDNSIPMAYLTLDHQLQPLAPCPNSKESMAVFEQHCKMAQEYMKVQTEIALLLQRKQELVAELDQDEKDQQNTSRLVQEHKKLLDENKSLSTYYQQCKKQLEVIRSQQQKRQGTS",binds
7,"KIF23 (protein, UniProt Q02241 1-960) MKSARAKTPRKPTVKKGSQTNLKDPVGVYCRVRPLGFPDQECCIEVINNTTVQLHTPEGYRLNRNGDYKETQYSFKQVFGTHTTQKELFDVVANPLVNDLIHGKNGLLFTYGVTGSGKTHTMTGSPGEGGLLPRCLDMIFNSIGSFQAKRYVFKSNDRNSMDIQCEVDALLERQKREAMPNPKTSSSKRQVDPEFADMITVQEFCKAEEVDEDSVYGVFVSYIEIYNNYIYDLLEEVPFDPIKPKPPQSKLLREDKNHNMYVAGCTEVEVKSTEEAFEVFWRGQKKRRIANTHLNRESSRSHSVFNIKLVQAPLDADGDNVLQEKEQITISQLSLVDLAGSERTNRTRAEGNRLREAGNINQSLMTLRTCMDVLRENQMYGTNKMVPYRDSKLTHLFKNYFDGEGKVRMIVCVNPKAEDYEENLQVMRFAEVTQEVEVARPVDKAICGLTPGRRYRNQPRGPVGNEPLVTDVVLQSFPPLPSCEILDINDEQTLPRLIEALEKRHNLRQMMIDEFNKQSNAFKALLQEFDNAVLSKENHMQGKLNEKEKMISGQKLEIERLEKKNKTLEYKIEILEKTTTIYEEDKRNLQQELETQNQKLQRQFSDKRRLEARLQGMVTETTMKWEKECERRVAAKQLEMQNKLWVKDEKLKQLKAIVTEPKTEKPERPSRERDREKVTQRSVSPSPVPLSSNYIAQISNGQQLMSQPQLHRRSNSCSSISVASCISEWEQKIPTYNTPLKVTSIARRRQQEPGQSKTCIVSDRRRGMYWTEGREVVPTFRNEIEIEEDHCGRLLFQPDQNAPPIRLRHRRSRSAGDRWVDHKPASNMQTETVMQPHVPHAITVSVANEKALAKCEKYMLTHQELASDGEIETKLIKGDIYKTRGGGQSVQFTDIETLKQESPNGSRKRRSSTVAPAQPDGAESEWTDVETRCSVAVEMRAGSQLGPGYQHHAQPKRKKP",binds
8,"HEBP1 (protein, UniProt Q9NRV9 1-189) MLGMIKNSLFGSVETWPWQVLSKGDKEEVAYEERACEGGKFATVEVTDKPVDEALREAMPKVAKYAGGTNDKGIGMGMTVPISFAVFPNEDGSLQKKLKVWFRIPNQFQSDPPAPSDKSVKIEEREGITVYSMQFGGYAKEADYVAQATRLRAALEGTATYRGDIYFCTGYDPPMKPYGRRNEIWLLKT",binds
9,"ASNS (protein, UniProt P08243 1-561) MCGIWALFGSDDCLSVQCLSAMKIAHRGPDAFRFENVNGYTNCCFGFHRLAVVDPLFGMQPIRVKKYPYLWLCYNGEIYNHKKMQQHFEFEYQTKVDGEIILHLYDKGGIEQTICMLDGVFAFVLLDTANKKVFLGRDTYGVRPLFKAMTEDGFLAVCSEAKGLVTLKHSATPFLKVEPFLPGHYEVLDLKPNGKVASVEMVKYHHCRDVPLHALYDNVEKLFPGFEIETVKNNLRILFNNAVKKRLMTDRRIGCLLSGGLDSSLVAATLLKQLKEAQVQYPLQTFAIGMEDSPDLLAARKVADHIGSEHYEVLFNSEEGIQALDEVIFSLETYDITTVRASVGMYLISKYIRKNTDSVVIFSGEGSDELTQGYIYFHKAPSPEKAEEESERLLRELYLFDVLRADRTTAAHGLELRVPFLDHRFSSYYLSLPPEMRIPKNGIEKHLLRETFEDSNLIPKEILWRPKEAFSDGITSVKNSWFKILQEYVEHQVDDAMMANAAQKFPFNTPKTKEGYYYRQVFERHYPGRADWLSHYWMPKWINATDPSARTLTHYKSAVKA",binds
10,"SRP19 (protein, UniProt P09132 1-144) MACAAARSPADQDRFICIYPAYLNNKKTIAEGRRIPISKAVENPTATEIQDVCSAVGLNVFLEKNKMYSREWNRDVQYRGRVRVQLKQEDGSLCLVQFPSRKSVMLYAAEMIPKLKTRTQKTGGADQSLQQGEGSKKGKGKKKK",binds
11,"FOSL2 (protein, UniProt P15408 1-326) MYQDYPGNFDTSSRGSSGSPAHAESYSSGGGGQQKFRVDMPGSGSAFIPTINAITTSQDLQWMVQPTVITSMSNPYPRSHPYSPLPGLASVPGHMALPRPGVIKTIGTTVGRRRRDEQLSPEEEEKRRIRRERNKLAAAKCRNRRRELTEKLQAETEELEEEKSGLQKEIAELQKEKEKLEFMLVAHGPVCKISPEERRSPPAPGLQPMRSGGGSVGAVVVKQEPLEEDSPSSSSAGLDKAQRSVIKPISIAGGFYGEEPLHTPIVVTSTPAVTPGTSNLVFTYPSVLEQESPASPSESCSKAHRRSSSSGDQSSDSLNSPTLLAL",binds
12,"IRF9 (protein, UniProt Q00978 1-393) MASGRARCTRKLRNWVVEQVESGQFPGVCWDDTAKTMFRIPWKHAGKQDFREDQDAAFFKAWAIFKGKYKEGDTGGPAVWKTRLRCALNKSSEFKEVPERGRMDVAEPYKVYQLLPPGIVSGQPGTQKVPSKRQHSSVSSERKEEEDAMQNCTLSPSVLQDSLNNEEEGASGGAVHSDIGSSSSSSSPEPQEVTDTTEAPFQGDQRSLEFLLPPEPDYSLLLTFIYNGRVVGEAQVQSLDCRLVAEPSGSESSMEQVLFPKPGPLEPTQRLLSQLERGILVASNPRGLFVQRLCPIPISWNAPQAPPGPGPHLLPSNECVELFRTAYFCRDLVRYFQGLGPPPKFQVTLNFWEESHGSSHTPQNLITVKMEQAFARYLLEQTPEQQAAILSLV",binds
13,"IFI44 (protein, UniProt Q8TCB0 1-444) MAVTTRLTWLHEKILQNHFGGKRLSLLYKGSVHGFRNGVLLDRCCNQGPTLTVIYSEDHIIGAYAEESYQEGKYASIILFALQDTKISEWKLGLCTPETLFCCDVTKYNSPTNFQIDGRNRKVIMDLKTMENLGLAQNCTISIQDYEVFRCEDSLDERKIKGVIELRKSLLSALRTYEPYGSLVQQIRILLLGPIGAGKSSFFNSVRSVFQGHVTHQALVGTNTTGISEKYRTYSIRDGKDGKYLPFILCDSLGLSEKEGGLCRDDIFYILNGNIRDRYQFNPMESIKLNHHDYIDSPSLKDRIHCVAFVFDASSIQYFSSQMIVKIKRIRRELVNAGVVHVALLTHVDSMDLITKGDLIEIERCEPVRSKLEEVQRKLGFALSDISVVSNYSSEWELDPVKDVLILSALRRMLWAADDFLEDLPFEQIGNLREEIINCAQGKK",binds
